# The other results are listed elsewhere or left out.
# B1: pilr alpha (protein)
# chain: MLYGVTQPKHLSASMGGSVEIPFSFYYPWELATAPDVRISWRRGHFHRQSFYSTRPPSIHKDYVNRLFLNWTEGQKSGFLRISNLQKQDQSVYFCRVELDTRSSGRQQWQSIEGTKLSIT
# Columns and labels:
# Assay in all cases: glycan array binding signal (z-score within array); higher = stronger binding
# Conditions in all cases: glycan notation: IUPAC condensed, linker removed
# [1] = biological target: Neu5Ac(a2-3)Gal(b1-4)GlcNAc(b1-2)[Neu5Ac(a2-3)Gal(b1-4)GlcNAc(b1-4)]Man(a1-3)[GlcNAc(b1-4)][Neu5Ac(a2-3)Gal(b1-4)GlcNAc(b1-4)Man(a1-6)]Man(b1-4)GlcNAc(b1-4)GlcNAc
# In short: (§1)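 The binding signal is a Z-score computed within each array. Data were drawn from 3228 arrays in the Consortium for Functional Glycomics database, restricted to those with a known protein sequence. Scores were averaged over arrays of the same protein sequence at different concentrations or buffers, and over linkers, and negative values can be taken as non-binding.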
# [2] = biological target: Neu5Ac(a2-3)Gal(b1-4)GlcNAc(b1-2)[Neu5Ac(a2-3)Gal(b1-4)GlcNAc(b1-6)]Man(a1-6)[Neu5Ac(a2-3)Gal(b1-4)GlcNAc(b1-2)Man(a1-3)]Man(b1-4)GlcNAc(b1-4)GlcNAc
# In short: as §1
# [3] = biological target: Neu5Ac(a2-3)Gal(b1-4)GlcNAc(b1-2)[Neu5Ac(a2-3)Gal(b1-4)GlcNAc(b1-6)]Man(a1-6)[Neu5Ac(a2-3)Gal(b1-4)GlcNAc(b1-2)Man(a1-3)][GlcNAc(b1-4)]Man(b1-4)GlcNAc(b1-4)GlcNAc
# In short: as §1
# [4] = biological target: Neu5Ac(a2-3)Gal(b1-4)GlcNAc(b1-3)Gal
# In short: as §1
# [5] = biological target: Neu5Ac(a2-3)Gal(b1-4)GlcNAc(b1-3)Gal(b1-3)GlcNAc
# In short: as §1
# [6] = biological target: Neu5Ac(a2-3)Gal(b1-4)GlcNAc(b1-3)Gal(b1-4)GlcNAc
# In short: as §1
# [7] = biological target: Neu5Ac(a2-3)Gal(b1-4)GlcNAc(b1-3)Gal(b1-4)GlcNAc(b1-2)Man(a1-3)[Neu5Ac(a2-3)Gal(b1-4)GlcNAc(b1-3)Gal(b1-4)GlcNAc(b1-2)Man(a1-6)]Man(b1-4)GlcNAc(b1-4)GlcNAc
# In short: as §1
# [8] = biological target: Neu5Ac(a2-3)Gal(b1-4)GlcNAc(b1-3)Gal(b1-4)GlcNAc(b1-3)Gal(b1-4)GlcNAc
# In short: as §1
# [9] = biological target: Neu5Ac(a2-3)Gal(b1-4)GlcNAc(b1-3)Gal(b1-4)GlcNAc(b1-3)Gal(b1-4)GlcNAc(b1-2)Man(a1-3)[Neu5Ac(a2-3)Gal(b1-4)GlcNAc(b1-3)Gal(b1-4)GlcNAc(b1-3)Gal(b1-4)GlcNAc(b1-2)Man(a1-6)]GalNAc
# In short: as §1
# [10] = biological target: Neu5Ac(a2-3)Gal(b1-4)GlcNAc(b1-3)Gal(b1-4)GlcNAc(b1-3)GalNAc
# In short: as §1
# [11] = biological target: Neu5Ac(a2-3)Gal(b1-4)GlcNAc(b1-3)Gal(b1-4)GlcNAc(b1-3)[Neu5Ac(a2-3)Gal(b1-4)GlcNAc(b1-3)Gal(b1-4)GlcNAc(b1-6)]GalNAc
# In short: as §1
# [12] = biological target: Neu5Ac(a2-3)Gal(b1-4)GlcNAc(b1-3)Gal(b1-4)GlcNAc(b1-6)[Gal(b1-3)]GalNAc
# In short: as §1
# [13] = biological target: Neu5Ac(a2-3)Gal(b1-4)GlcNAc(b1-3)Gal(b1-4)[Fuc(a1-3)]GlcNAc
# In short: as §1
# [14] = biological target: Neu5Ac(a2-3)Gal(b1-4)GlcNAc(b1-3)GalNAc
# In short: as §1
# [15] = biological target: Neu5Ac(a2-3)Gal(b1-4)GlcNAc(b1-3)[Neu5Ac(a2-3)Gal(b1-4)GlcNAc(b1-6)]GalNAc
# In short: as §1
# [16] = biological target: Neu5Ac(a2-3)Gal(b1-4)GlcNAc(b1-6)GalNAc
# In short: as §1
# [17] = biological target: Neu5Ac(a2-3)Gal(b1-4)GlcNAc(b1-6)[Gal(b1-3)]GalNAc
# In short: as §1
# [18] = biological target: Neu5Ac(a2-3)Gal(b1-4)GlcNAc(b1-6)[Neu5Ac(a2-3)Gal(b1-3)]GalNAc
# In short: as §1
# [19] = biological target: Neu5Ac(a2-3)Gal(b1-4)GlcNAc6S
# In short: as §1
# [20] = biological target: Neu5Ac(a2-3)Gal(b1-4)[Fuc(a1-3)]GlcNAc
# In short: as §1
# [21] = biological target: Neu5Ac(a2-3)Gal(b1-4)[Fuc(a1-3)]GlcNAc(b1-2)Man
# In short: as §1
# [22] = biological target: Neu5Ac(a2-3)Gal(b1-4)[Fuc(a1-3)]GlcNAc(b1-3)Gal
# In short: as §1
# [23] = biological target: Neu5Ac(a2-3)Gal(b1-4)[Fuc(a1-3)]GlcNAc(b1-3)Gal(b1-4)GlcNAc
# In short: as §1
# [24] = biological target: Neu5Ac(a2-3)Gal(b1-4)[Fuc(a1-3)]GlcNAc(b1-3)Gal(b1-4)[Fuc(a1-3)]GlcNAc(b1-3)Gal(b1-4)[Fuc(a1-3)]GlcNAc
# In short: as §1
# [25] = biological target: Neu5Ac(a2-3)Gal(b1-4)[Fuc(a1-3)]GlcNAc(b1-3)GalNAc
# In short: as §1
# [26] = biological target: Neu5Ac(a2-3)Gal(b1-4)[Fuc(a1-3)]GlcNAc(b1-6)[Gal(b1-3)]GalNAc
# In short: as §1
# [27] = biological target: Neu5Ac(a2-3)Gal(b1-4)[Fuc(a1-3)]GlcNAc(b1-6)[Neu5Ac(a2-3)Gal(b1-3)]GalNAc
# In short: as §1
# [28] = biological target: Neu5Ac(a2-3)Gal(b1-4)[Fuc(a1-3)]GlcNAc6S
# In short: as §1
# [29] = biological target: Neu5Ac(a2-3)Gal6S(b1-4)GlcNAc
# In short: as §1
# [30] = biological target: Neu5Ac(a2-3)Gal6S(b1-4)[Fuc(a1-3)]GlcNAc
# In short: as §1
# Neu5Ac(a2-3)GalNAc = biological target: Neu5Ac(a2-3)GalNAc
# In short: as §1
# [31] = biological target: Neu5Ac(a2-3)GalNAc(b1-4)GlcNAc
# In short: as §1
# [32] = biological target: Neu5Ac(a2-3)[GalNAc(b1-4)]Gal(b1-4)Glc
# In short: as §1
# [33] = biological target: Neu5Ac(a2-3)[GalNAc(b1-4)]Gal(b1-4)GlcNAc
# In short: as §1
# [34] = biological target: Neu5Ac(a2-3)[GalNAc(b1-4)]Gal(b1-4)GlcNAc(b1-3)GalNAc
# In short: as §1
# [35] = biological target: Neu5Ac(a2-3)[Neu5Ac(a2-6)]GalNAc
# In short: as §1
# Neu5Ac(a2-6)Gal = biological target: Neu5Ac(a2-6)Gal
# In short: as §1
# [36] = biological target: Neu5Ac(a2-6)Gal(b1-3)GlcNAc(b1-3)[Gal(b1-4)GlcNAc(b1-6)]Gal(b1-4)Glc
# In short: as §1
# Neu5Ac(a2-6)Gal(b1-4)Glc = biological target: Neu5Ac(a2-6)Gal(b1-4)Glc
# In short: as §1
# [37] = biological target: Neu5Ac(a2-6)Gal(b1-4)GlcNAc
# In short: as §1
# [38] = biological target: Neu5Ac(a2-6)Gal(b1-4)GlcNAc(b1-2)Man
# In short: as §1
# [39] = biological target: Neu5Ac(a2-6)Gal(b1-4)GlcNAc(b1-2)Man(a1-3)Man(b1-4)GlcNAc(b1-4)GlcNAc
# In short: as §1
# [40] = biological target: Neu5Ac(a2-6)Gal(b1-4)GlcNAc(b1-2)Man(a1-3)[Gal(b1-4)GlcNAc(b1-2)Man(a1-6)]Man(b1-4)GlcNAc(b1-4)GlcNAc
# In short: as §1
# [41] = biological target: Neu5Ac(a2-6)Gal(b1-4)GlcNAc(b1-2)Man(a1-3)[GlcNAc(b1-2)Man(a1-6)]Man(b1-4)GlcNAc(b1-4)GlcNAc
# In short: as §1
# [42] = biological target: Neu5Ac(a2-6)Gal(b1-4)GlcNAc(b1-2)Man(a1-3)[GlcNAc(b1-4)][Neu5Ac(a2-6)Gal(b1-4)GlcNAc(b1-2)Man(a1-6)]Man(b1-4)GlcNAc(b1-4)GlcNAc
# In short: as §1
binder,measurement,setting,value
B1,glycan array binding signal (z-score),[1],-0.4
same,glycan array binding signal (z-score),[2],-0.299
same,glycan array binding signal (z-score),[3],-0.41
same,glycan array binding signal (z-score),[4],-0.61
same,glycan array binding signal (z-score),[5],-0.35
same,glycan array binding signal (z-score),[6],-0.155
same,glycan array binding signal (z-score),[7],0.102
same,glycan array binding signal (z-score),[8],-0.173
same,glycan array binding signal (z-score),[9],0.331
same,glycan array binding signal (z-score),[10],-0.77
same,glycan array binding signal (z-score),[11],-0.575
same,glycan array binding signal (z-score),[12],0.592
same,glycan array binding signal (z-score),[13],-0.384
same,glycan array binding signal (z-score),[14],-0.111
same,glycan array binding signal (z-score),[15],-0.347
same,glycan array binding signal (z-score),[16],-0.452
same,glycan array binding signal (z-score),[17],-0.533
same,glycan array binding signal (z-score),[18],-0.642
same,glycan array binding signal (z-score),[19],-0.654
same,glycan array binding signal (z-score),[20],-0.287
same,glycan array binding signal (z-score),[21],-0.097
same,glycan array binding signal (z-score),[22],-0.142
same,glycan array binding signal (z-score),[23],0.457
same,glycan array binding signal (z-score),[24],1.01
same,glycan array binding signal (z-score),[25],1.59
same,glycan array binding signal (z-score),[26],0.534
same,glycan array binding signal (z-score),[27],-0.1
same,glycan array binding signal (z-score),[28],0.643
same,glycan array binding signal (z-score),[29],-0.007
same,glycan array binding signal (z-score),[30],-0.395
same,glycan array binding signal (z-score),Neu5Ac(a2-3)GalNAc,-0.569
same,glycan array binding signal (z-score),[31],0.102
same,glycan array binding signal (z-score),[32],0.89
same,glycan array binding signal (z-score),[33],-0.65
same,glycan array binding signal (z-score),[34],0.118
same,glycan array binding signal (z-score),[35],-0.023
same,glycan array binding signal (z-score),Neu5Ac(a2-6)Gal,-0.339
same,glycan array binding signal (z-score),[36],-0.49
same,glycan array binding signal (z-score),Neu5Ac(a2-6)Gal(b1-4)Glc,0.137
same,glycan array binding signal (z-score),[37],-0.299
same,glycan array binding signal (z-score),[38],-0.586
same,glycan array binding signal (z-score),[39],-0.545
same,glycan array binding signal (z-score),[40],-0.165
same,glycan array binding signal (z-score),[41],-0.363
same,glycan array binding signal (z-score),[42],-0.429
